This is an account of results in patent US20100056764A1.

Amino acid sequences for entries named in this document (tags omitted). A change or cut given only in a name is not applied to a line headed by its entry.
UniProt P26718: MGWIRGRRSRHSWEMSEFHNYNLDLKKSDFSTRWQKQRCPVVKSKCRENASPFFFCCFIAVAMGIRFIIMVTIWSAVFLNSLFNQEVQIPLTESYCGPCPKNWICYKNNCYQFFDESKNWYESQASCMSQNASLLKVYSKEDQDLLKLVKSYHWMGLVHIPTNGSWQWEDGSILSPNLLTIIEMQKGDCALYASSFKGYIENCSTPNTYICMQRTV

No constants are given. Whether binding was seen depends on the method and setting. Some results given as binding are weak or reduced against the parent protein; the word gives no strength. Sequences can lack the tags named with a protein.

This test has as its target human NKG2D (hNKG2D) on the cell surface (human) (UniProt P26718). Kind of test: flow cytometry, MICA-mFc on NKG2D/DAP10-expressing BaF/3 cells, with and without pre-incubation with an unnamed human anti-NKG2D hybridoma supernatant. For orientation: A flow cytometer gives signals particle by particle.

B1: MICA-mFc (MICA fused to murine Fc) (Fc fusion, UniProt Q29983 24-307, looked up, not shown: a dimerising Fc or GST)
chain: EPHSLRYNLTVLSWDGSVQSGFLTEVHLDGQPFLRCDRQKCRAKPQGQWAEDVLGNKTWDRETRDLTGNGKDLRMTLAHIKDQKEGLHSLQEIRVCEIHEDNSTRSSQHFYYDGELFLSQNLETKEWTMPQSSRAQTLAMNVRNFLKEDAMKTKTHYHAMHADCLQELRRYLKSGVVLRRTVPPMVNVTRSEASEGNITVTCRASGFYPWNITLSWRQDGVSLSHDTQQWGDVLPDGNGTYQTWVATRICQGEEQRFTCYMEHSGNHSTHPVPSGKVLVLQSHW
As for B1, the binding result was “binds”.
